Source: the supplement of paper PMC4604168 (melanoma cell lines)
This is one part of the list. Many values rest on one well or one pass, so single values are uncertain.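 Imaging used 1,536-well plates; nuclei positive for cleaved PARP by antibody were divided by total DNA-stained nuclei to yield the apoptosis fraction. Doses for screening kept most cells viable, and cell lines differ markedly in resting and induced cleaved-PARP levels.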

Experiments:
Assay in all cases: cleaved PARP positive nuclei fraction relative to DMSO control; melanoma cells; higher = more apoptosis
Conditions in all cases: library dose: low library concentration; 72 h
WM115 = system: WM115
WM1716 = system: WM1716
WM1745 = system: WM1745
WM3526 = system: WM3526
WM3619 = system: WM3619
WM451Lu = system: WM451Lu

Row | SMILES | cleaved PARP positive nuclei fraction (WM115) [%] | cleaved PARP positive nuclei fraction (WM1716) [%] | cleaved PARP positive nuclei fraction (WM1745) [%] | cleaved PARP positive nuclei fraction (WM3526) [%] | cleaved PARP positive nuclei fraction (WM3619) [%] | cleaved PARP positive nuclei fraction (WM451Lu) [%]
1 | C#Cc1cccc(Nc2ncnc3cc(OCCOC)c(OCCOC)cc23)c1 [erlotinib] + N#Cc1c(O)c2c(-c3ccc(-c4ccccc4O)cc3)csc2[nH]c1=O [A769662] (first compound 0.8 µM, partner dose 2 µM) | 75.8 | 69.2 | 112 | 34.9 | 66.7 | 37.3
2 | CC(C)(C)c1cnc(CSc2cnc(NC(=O)C3CCNCC3)s2)o1 + CCCCCCCCCCCC1=C(O)C(=O)C=C(O)C1=O [Embelin] (first compound 0.01 µM, partner dose 1.2 µM) | 149 | 48.6 | 113 | 120 | 68.6 | 47
3 | OCCn1cc(-c2cnc3nnn(Cc4ccc5ncccc5c4)c3n2)cn1 + COc1cc2ncnc(Nc3ccc(Oc4ccccc4)cc3)c2cc1OC [SrcI1] (first compound 1 µM, partner dose 2 µM) | 121 | 90.2 | 107 | 62.9 | 73.1 | 94
4 | Cn1nnc2c(C(N)=O)ncn2c1=O [temozolomide] + COc1cc2ncnc(Nc3ccc(Oc4ccccc4)cc3)c2cc1OC [SrcI1] (first compound 2 µM, partner dose 2 µM) | 70.6 | 66.6 | 127 | 65.9 | 81.8 | 58.9
5 | OCc1c[nH]c2ccccc12 [Indole-3-carbinol] + Cn1nnc2c(C(N)=O)ncn2c1=O [temozolomide] (first compound 0.8 µM, partner dose 2 µM) | 79.7 | 15.1 | 198 | 90.5 | 73.8 | 59.6
6 | NC(=O)Nc1cc(-c2cccc(F)c2)sc1C(=O)N[C@H]1CCCNC1 + CCCCCCCCCCCC1=C(O)C(=O)C=C(O)C1=O [Embelin] (first compound 0.02 µM, partner dose 1.2 µM) | 189 | 60 | 103 | 73.2 | 72.4 | 70.9
7 | C=CCNC1=C2C[C@@H](C)C[C@H](OC)[C@H](O)[C@@H](C)/C=C(\C)[C@H](OC(N)=O)[C@@H](OC)/C=C\C=C(/C)C(=O)NC(=CC1=O)C2=O [Tanespimycin] + Nc1cccc2c1CN(C1CCC(=O)NC1=O)C2=O [lenalidomide] (first compound 0.002 µM, partner dose 1 µM) | 60 | 67.7 | 98.1 | 97.5 | 120 | 50.3
8 | Cc1ccc(NC(=O)c2cccc(N(C)C)c2)cc1NC(=O)c1ccc(O)cc1 + COc1cc2c(Oc3ccc4[nH]c(C)cc4c3F)ncnc2cc1OCCCN1CCCC1 [cediranib] (first compound 2 µM, partner dose 0.4 µM) | 203 | 58.4 | 93.5 | 96.3 | 88 | 51.3
9 | C=CCn1c(=O)c2cnc(Nc3ccc(N4CCN(C)CC4)cc3)nc2n1-c1cccc(C(C)(C)O)n1 + Cn1cc(/C=C2\C(=O)Nc3cccnc32)c2ccccc21 [GW441756] (first compound 0.02 µM, partner dose 0.4 µM) | 123 | 39.7 | 128 | 40.4 | 99.6 | 125
10 | Nc1cccc2c1CN(C1CCC(=O)NC1=O)C2=O (stereo not given) [lenalidomide] + O=C(Nc1cccc(Cl)c1)Nc1ncc(CCNc2ncnc3ccsc23)s1 [SNS314] (first compound 1 µM, partner dose 0.0008 µM) | 157 | 115 | 102 | 69.5 | 99.9 | 116
11 | OCCn1cc(-c2cnc3nnn(Cc4ccc5ncccc5c4)c3n2)cn1 + COc1ccc2c(c1)CCC1C2CCC2(C)C(NCCCCCCN3C(=O)C=CC3=O)CCC12 [U73122] (first compound 1 µM, partner dose 0.4 µM) | 80.1 | 111 | 102 | 31.6 | 152 | 202
12 | C=CCNC1=C2C[C@@H](C)C[C@H](OC)[C@H](O)[C@@H](C)/C=C(\C)[C@H](OC(N)=O)[C@@H](OC)/C=C\C=C(/C)C(=O)NC(=CC1=O)C2=O [Tanespimycin] + Oc1cc(-c2nc(-c3ccccc3)[nH]c2-c2ccncc2)ccc1Cl [L779450] (first compound 0.002 µM, partner dose 0.2 µM) | 104 | 91.8 | 113 | 84.6 | 100 | 35.7
13 | Nc1cccc2c1CN(C1CCC(=O)NC1=O)C2=O (stereo not given) [lenalidomide] + O=C1NC(=O)/C(=C/c2ccc(-c3ccc(F)cc3O)o2)S1 [AS252424] (first compound 1 µM, partner dose 1 µM) | 297 | 96 | 103 | 68.9 | 72.3 | 79.7
14 | CO[C@@H]1[C@H](N(C)C(=O)c2ccccc2)C[C@H]2O[C@]1(C)n1c3ccccc3c3c4c(c5c6ccccc6n2c5c31)C(=O)NC4 [Midostaurin] + CCc1ccc(CCOc2ccc(CC3SC(=O)NC3=O)cc2)nc1 [pioglitazone] (first compound 0.08 µM, partner dose 2 µM) | 116 | 120 | 137 | 136 | 79.8 | 46.1
15 | C=CCNC1=C2C[C@@H](C)C[C@H](OC)[C@H](O)[C@@H](C)/C=C(\C)[C@H](OC(N)=O)[C@@H](OC)/C=C\C=C(/C)C(=O)NC(=CC1=O)C2=O [Tanespimycin] + COc1ccc(COc2ccc(Cc3cnc(N)nc3N)cc2OC)cc1 [GW2580] (first compound 0.002 µM, partner dose 1 µM) | 106 | 600 | 84.1 | 126 | 88.8 | 135
16 | C#Cc1cccc(Nc2ncnc3cc(OCCOC)c(OCCOC)cc23)c1 [erlotinib] + COc1ccc(Cl)c(Nc2nc3ccccc3nc2NS(=O)(=O)c2cccc(NC(=O)C(C)(C)N)c2)c1 [XL147] (first compound 0.8 µM, partner dose 0.8 µM) | 120 | 39.1 | 109 | 40 | 95.1 | 107
17 | C[C@]1(c2nc3c(C(N)=O)cccc3[nH]2)CCCN1 [Veliparib] + Cc1cc(N2CCOCC2)cc2[nH]c(-c3c(NC[C@@H](O)c4cccc(Cl)c4)cc[nH]c3=O)nc12 [BMS536924] (first compound 1.4 µM, partner dose 0.2 µM) | 161 | 164 | 105 | 31.1 | 130 | 466
18 | Cn1nnc2c(C(N)=O)ncn2c1=O [temozolomide] + O=C(O)C(=O)Nc1sc2c(c1C(=O)O)CCNC2 [TCS401] (first compound 2 µM, partner dose 1.66667 µM) | 181 | 187 | 113 | 173 | 346 | 137
19 | C#Cc1cccc(Nc2ncnc3cc(OCCOC)c(OCCOC)cc23)c1 [erlotinib] + COc1cc(Nc2ncc(F)c(Nc3ccc4c(n3)NC(=O)C(C)(C)O4)n2)cc(OC)c1OC [Tamatinib] (first compound 0.8 µM, partner dose 0.4 µM) | 165 | 222 | 142 | 64.7 | 103 | 58.4
20 | Cn1nnc2c(C(N)=O)ncn2c1=O [temozolomide] + O=c1cc(-c2cccc3c2Sc2ccccc2S3)oc(N2CCOCC2)c1 [KU55933] (first compound 2 µM, partner dose 1 µM) | 202 | 90.2 | 97.6 | 207 | 165 | 30.7
21 | Cc1ccc(NC(=O)c2cccc(N(C)C)c2)cc1NC(=O)c1ccc(O)cc1 + C[C@@H]1CCN(C(=O)CC#N)C[C@@H]1N(C)c1ncnc2[nH]ccc12 [CP690550] (first compound 2 µM, partner dose 1 µM) | 100 | 65.9 | 103 | 52.7 | 96.3 | 279
22 | CO[C@@H]1[C@H](N(C)C(=O)c2ccccc2)C[C@H]2O[C@]1(C)n1c3ccccc3c3c4c(c5c6ccccc6n2c5c31)C(=O)NC4 [Midostaurin] + O=c1cc(-c2cccc3c2Sc2ccccc2S3)oc(N2CCOCC2)c1 [KU55933] (first compound 0.08 µM, partner dose 1 µM) | 79.7 | 159 | 158 | 69.5 | 126 | 161
23 | O=C(CCCCCCC(=O)Nc1ccccc1)NO [vorinostat] + C=CCn1c(=O)c2cnc(Nc3ccc(N4CCN(C)CC4)cc3)nc2n1-c1cccc(C(C)(C)O)n1 [MK1775] (first compound 0.08 µM, partner dose 0.02 µM) | 137 | 75.5 | 102 | 59.4 | 97.6 | 65
24 | NC(=O)Nc1cc(-c2cccc(F)c2)sc1C(=O)N[C@H]1CCCNC1 + CCN(CC)CCCCNc1ncc2cc(-c3cc(OC)cc(OC)c3)c(NC(=O)NC(C)(C)C)nc2n1 [PD173074] (first compound 0.02 µM, partner dose 0.1 µM) | 139 | 57.3 | 101 | 100 | 371 | 133
25 | C[C@]1(c2nc3c(C(N)=O)cccc3[nH]2)CCCN1 [Veliparib] + COc1cc2ncnc(Nc3ccc(Oc4ccccc4)cc3)c2cc1OC [SrcI1] (first compound 1.4 µM, partner dose 2 µM) | 268 | 172 | 139 | 88.5 | 73.5 | 106

Part of the list above, as comma-separated lines.
Row,SMILES,cleaved PARP positive nuclei fraction (WM115) [%],cleaved PARP positive nuclei fraction (WM1716) [%],cleaved PARP positive nuclei fraction (WM1745) [%],cleaved PARP positive nuclei fraction (WM3526) [%],cleaved PARP positive nuclei fraction (WM3619) [%],cleaved PARP positive nuclei fraction (WM451Lu) [%]
9,"C=CCn1c(=O)c2cnc(Nc3ccc(N4CCN(C)CC4)cc3)nc2n1-c1cccc(C(C)(C)O)n1 + Cn1cc(/C=C2\C(=O)Nc3cccnc32)c2ccccc21 [GW441756] (first compound 0.02 µM, partner dose 0.4 µM)",123,39.7,128,40.4,99.6,125
10,"Nc1cccc2c1CN(C1CCC(=O)NC1=O)C2=O (stereo not given) [lenalidomide] + O=C(Nc1cccc(Cl)c1)Nc1ncc(CCNc2ncnc3ccsc23)s1 [SNS314] (first compound 1 µM, partner dose 0.0008 µM)",157,115,102,69.5,99.9,116
11,"OCCn1cc(-c2cnc3nnn(Cc4ccc5ncccc5c4)c3n2)cn1 + COc1ccc2c(c1)CCC1C2CCC2(C)C(NCCCCCCN3C(=O)C=CC3=O)CCC12 [U73122] (first compound 1 µM, partner dose 0.4 µM)",80.1,111,102,31.6,152,202
12,"C=CCNC1=C2C[C@@H](C)C[C@H](OC)[C@H](O)[C@@H](C)/C=C(\C)[C@H](OC(N)=O)[C@@H](OC)/C=C\C=C(/C)C(=O)NC(=CC1=O)C2=O [Tanespimycin] + Oc1cc(-c2nc(-c3ccccc3)[nH]c2-c2ccncc2)ccc1Cl [L779450] (first compound 0.002 µM, partner dose 0.2 µM)",104,91.8,113,84.6,100,35.7
13,"Nc1cccc2c1CN(C1CCC(=O)NC1=O)C2=O (stereo not given) [lenalidomide] + O=C1NC(=O)/C(=C/c2ccc(-c3ccc(F)cc3O)o2)S1 [AS252424] (first compound 1 µM, partner dose 1 µM)",297,96,103,68.9,72.3,79.7
14,"CO[C@@H]1[C@H](N(C)C(=O)c2ccccc2)C[C@H]2O[C@]1(C)n1c3ccccc3c3c4c(c5c6ccccc6n2c5c31)C(=O)NC4 [Midostaurin] + CCc1ccc(CCOc2ccc(CC3SC(=O)NC3=O)cc2)nc1 [pioglitazone] (first compound 0.08 µM, partner dose 2 µM)",116,120,137,136,79.8,46.1
